The data set relates to hCMs. As to the kind of experiment: RNA-seq transcriptome analysis of drug-treated hCMs. Format: cell-based, human. The settings on record: compared to apilimod and remdesivir.

With `Cc1cccc(C)c1OCC(=O)N[C@@H](Cc1ccccc1)[C@@H](O)C[C@H](Cc1ccccc1)NC(=O)[C@H](C(C)C)N1CCCNC1=O` [Lopinavir, lopinavir], the “alteration of the transcriptome of hCMs” value is recorded as “minimally altered the transcriptome”.
Consider `CC(C)c1nc(CN(C)C(=O)N[C@H](C(=O)N[C@@H](Cc2ccccc2)C[C@H](O)[C@H](Cc2ccccc2)NC(=O)OCc2cncs2)C(C)C)cs1` [Ritonavir, ritonavir], for which the “alteration of the transcriptome of hCMs” value is reported as “minimally altered the transcriptome”.

The values above are taken from article PMC9539280 (Advanced Science, 2022).
